These results are taken from paper PMC5601996.

By UniProt entry, the sequences of proteins in these tests, tags left out.
UniProt O00327: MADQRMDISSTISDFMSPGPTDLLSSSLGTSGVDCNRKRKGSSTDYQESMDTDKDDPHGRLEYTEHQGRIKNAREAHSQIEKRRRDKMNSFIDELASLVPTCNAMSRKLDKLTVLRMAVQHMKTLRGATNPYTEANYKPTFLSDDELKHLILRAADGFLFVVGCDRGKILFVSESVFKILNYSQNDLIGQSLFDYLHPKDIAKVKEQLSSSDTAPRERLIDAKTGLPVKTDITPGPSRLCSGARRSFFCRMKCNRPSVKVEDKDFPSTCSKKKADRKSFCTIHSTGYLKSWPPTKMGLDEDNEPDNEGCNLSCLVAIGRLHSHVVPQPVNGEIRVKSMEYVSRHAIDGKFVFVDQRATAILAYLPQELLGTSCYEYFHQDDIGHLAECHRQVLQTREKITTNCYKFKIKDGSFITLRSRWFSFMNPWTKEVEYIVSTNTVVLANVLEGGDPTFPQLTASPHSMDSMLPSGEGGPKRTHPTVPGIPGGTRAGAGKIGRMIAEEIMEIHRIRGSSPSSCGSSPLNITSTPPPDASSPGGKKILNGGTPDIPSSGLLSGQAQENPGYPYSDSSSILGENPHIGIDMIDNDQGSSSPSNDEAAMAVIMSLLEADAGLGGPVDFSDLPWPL
UniProt Q9H9Q2: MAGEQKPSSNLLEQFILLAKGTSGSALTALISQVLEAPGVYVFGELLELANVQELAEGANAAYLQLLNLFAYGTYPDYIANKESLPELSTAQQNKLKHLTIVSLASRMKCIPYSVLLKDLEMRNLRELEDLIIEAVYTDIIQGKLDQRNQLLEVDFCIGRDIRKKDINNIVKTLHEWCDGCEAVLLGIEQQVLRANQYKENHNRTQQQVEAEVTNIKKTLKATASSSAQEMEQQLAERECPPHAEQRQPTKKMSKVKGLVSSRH

Results are given in words; binding and its absence hold for the method and conditions named. Binding seen in cells or lysates may run through a third protein. Some results given as binding are weak or reduced against the parent protein; the word gives no strength.

Test [1] has as its target FLAG epitope-tagged BMAL1 (UniProt O00327). Description: co-IP; HEK293T transfected with FLAG-tagged clock proteins; nuclear extracts (1000 ug) with anti-FLAG M2 or anti-COPS7B antibody 90 min at 4°C, protein A agarose 1 hr; one wash 50 mM Tris, 500 mM NaCl, 1% NP-40, two washes 50 mM Tris, 120 mM NaCl, 0.5% NP-40; Western blot probed with the opposite antibody.
For test [2], the target named is FLAG epitope-tagged BMAL1 (in U2OS cells) (UniProt O00327). Nature of the test: co-IP; U2OS cells (rhythmic) transfected with FLAG-tagged clock proteins, synchronized by dexamethasone; nuclear extracts (1000 ug) with antibody 90 min at 4°C, protein A agarose; one high-salt wash (500 mM NaCl), two low-salt washes (120 mM NaCl); Western blot.
For test [3], the target named is COPS7B, a subunit of the COP9 signalosome (human (endogenous in HEK293T)) (UniProt Q9H9Q2). Nature of the test: co-IP; HEK293T transfected with FLAG-tagged clock proteins; nuclear extracts (1000 ug) with anti-FLAG M2 or anti-COPS7B antibody 90 min at 4°C, protein A agarose 1 hr; one wash 50 mM Tris, 500 mM NaCl, 1% NP-40, two washes 50 mM Tris, 120 mM NaCl, 0.5% NP-40; Western blot probed with the opposite antibody. For orientation: A western blot detects proteins with antibodies after separation by electrophoresis.

Regarding “COPS7B, a subunit of the COP9 signalosome (from UniProt Q9H9Q2 1-264)”, the binding result in test [1] is “binds”. “COPS7B, a subunit of the COP9 signalosome (in U2OS cells) (from UniProt Q9H9Q2 1-264)”: the binding entry in test [2] is “binds”. On to “FLAG epitope-tagged BMAL1 (from UniProt O00327 1-626)”, for which the binding result in test [3] is listed as “binds”.
